These are yes or no findings as the source states them, for the method shown. In cells and extracts the contact can be indirect. Binding calls can cover weak binding; strength is not graded here. For part of these data: Where a sequence is shown, tags or fusion partners need not be part of it.
Assays:
RASSF10-EYFP (human) = biological target: T1, RASSF10-EYFP (human) (UniProt A6NK89); assay: co-IP; wt-RASSF10 held on GFP-Trap, ASPP1/2 co-precipitated, RASSF10D237-362 as competitor (Figure S3c)
T1 sequence: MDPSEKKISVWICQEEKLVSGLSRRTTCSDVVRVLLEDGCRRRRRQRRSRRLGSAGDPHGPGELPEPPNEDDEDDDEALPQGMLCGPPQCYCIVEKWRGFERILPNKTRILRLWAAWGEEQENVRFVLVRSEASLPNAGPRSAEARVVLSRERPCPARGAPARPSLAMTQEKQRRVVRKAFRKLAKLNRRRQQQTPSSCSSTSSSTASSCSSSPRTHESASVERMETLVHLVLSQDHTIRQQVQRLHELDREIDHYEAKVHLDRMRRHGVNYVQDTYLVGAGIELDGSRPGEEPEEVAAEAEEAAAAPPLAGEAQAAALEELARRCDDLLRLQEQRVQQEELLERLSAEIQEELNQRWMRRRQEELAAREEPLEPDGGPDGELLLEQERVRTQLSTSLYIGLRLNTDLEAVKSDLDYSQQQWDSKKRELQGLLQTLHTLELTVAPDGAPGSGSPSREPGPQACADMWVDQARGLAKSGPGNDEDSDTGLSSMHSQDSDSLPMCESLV

RASSF10D1-133 (human) = biological target: T2, RASSF10D1-133 (human) (UniProt A6NK89); assay: co-IP; co-precipitation of ASPP1/2 with RASSF10 or RASSF10 domain mutants (Figure S3a); tags and cells not given
T2 sequence: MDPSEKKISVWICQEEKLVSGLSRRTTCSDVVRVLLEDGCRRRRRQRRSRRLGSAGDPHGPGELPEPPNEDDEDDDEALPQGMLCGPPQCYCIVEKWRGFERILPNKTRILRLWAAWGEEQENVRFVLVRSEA

[1] = biological target: T3, RASSF10, overexpressed (tag not stated) (human) (UniProt A6NK89); assay: pull-down; RASSF10 overexpressed in HEK cells and pulled down (GFP-Trap or Glutathione-Sepharose; which in which panel not told); overexpressed (Figure 4b) or endogenous (Figure 4c) ASPP1/2 detected by Western blot
T3 sequence: T1 sequence

| binding (RASSF10-EYFP (human)) | binding (RASSF10D1-133 (human)) | binding [1] | Substance |
| --- | --- | --- | --- |
| binds | binds weakly |  | ASPP1 (experiments of Figure S3) |
|  |  | binds | ASPP1, overexpressed (tag not stated) |

From article PMC6966473
